Laboratory results as given in patent US20250195523A1, “ORGANIC MOLECULES FOR TREATING MYELIN PATHOLOGIES” (ICM (INSTITUT DU CERVEAU ET DE LA MOELLE ÉPINIÈRE), priority 2022, published 2025).

Tested on: focal demyelination in the corpus callosum of adult mice
Assay: Lysolecithin (LPC) induced focal de/remyelination model in adult mice, oral administration in drinking water
Format: in vivo
Settings: drugs daily in 5%-glucose drinking water; among groups; FIG. 4A
Protocol: We weighted and anesthetized 4 months old RjOrl: SWISS mice (Janvier) with isoflurane (induced at 3%, and maintained at 1.2-1.6%). We induced focal demyelinating lesions by injecting 0.5 μl of a solution of 1% lysolecithin (LPC, Sigma in 0.9% NaCl solution) into the corpus callosum. To do so, a glass-capillary connected to a 10 μl Hamilton syringe was fixed and oriented through stereotaxic apparatus (coordinates: 1 mm lateral, 1.3 mm rostral to Bregma, 1.7 mm deep to brain surface). Animals were left to recover for a few hours in a warm chamber. […] Mice was perfused at 2% cold paraformaldehyde (thermos fisher) at 7 DPI.
For in-vivo cryosections (14-μm thick) of lesions, immunohistochemistry was performed after 30 mn drying at RT in a moist chamber. For myelin staining, ethanol treatment (100%) was performed for 10 mn at RT. […]
We analyzed the lesions at 7 days post-lesion (7 dpl), when newly formed OLs have started to remyelinate the lesion in this model. […] We determined the effect of the drugs to promote oligodendrogenesis at the lesion site by combinatory immunodetection of Olig2, CC1 and Olig1, allowing to distinguish OPCs (Olig2^high/CC1^−/Olig1^nuclear-cyto cells) and three stages in OL differentiation: iOL1 (Olig2^high/CC1^high/Olig1^− cells), iOL2 (Olig2^high/CC1^high/Olig1^high-cyto cells), and mOL (Olig2^low/CC1^low/Olig1^low cells). […]

Compound	daily oral consumption of drinking water
CCCCOc1ccc(C(=O)CCN2CCCCC2)cc1.Cl [Sm5, Dyclonine hydrochloride]	did not find any significant changes
Nc1nc(=O)c2c([nH]1)NCC(CNc1ccc(C(=O)N[C@@H](CCC(=O)O)C(=O)O)cc1)N2C=O.[Ca+2] (some centres unmarked) [Sm11, Calcium folinate]	did not find any significant changes
